This note sets out measurements from PMC5101189, “Structure of the MIS12 Complex and Molecular Basis of Its Interaction with CENP-C at Human Kinetochores” (Cell, 2016).

Amino acid sequences for entries named in this document (tags omitted). A change or cut given only in a name is not applied to a line headed by its entry. Chains listed by the source or under a name are the forms on record and can include a tag or linker. Residues count along the entry.
UniProt Q9H081: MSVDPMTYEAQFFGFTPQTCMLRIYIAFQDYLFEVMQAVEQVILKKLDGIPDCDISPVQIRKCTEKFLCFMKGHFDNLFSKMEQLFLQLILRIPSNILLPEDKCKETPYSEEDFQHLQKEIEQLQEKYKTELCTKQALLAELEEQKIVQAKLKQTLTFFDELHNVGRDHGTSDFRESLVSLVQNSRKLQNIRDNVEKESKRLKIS
GFP-MIS12C^MIS12-YFF (Q9H081, form named): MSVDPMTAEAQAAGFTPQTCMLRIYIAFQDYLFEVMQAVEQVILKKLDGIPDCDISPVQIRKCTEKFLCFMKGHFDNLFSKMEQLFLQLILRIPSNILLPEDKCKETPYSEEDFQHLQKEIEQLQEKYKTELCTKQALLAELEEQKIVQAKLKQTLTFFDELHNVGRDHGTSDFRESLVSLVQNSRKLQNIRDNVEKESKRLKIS
UniProt Q8NG31: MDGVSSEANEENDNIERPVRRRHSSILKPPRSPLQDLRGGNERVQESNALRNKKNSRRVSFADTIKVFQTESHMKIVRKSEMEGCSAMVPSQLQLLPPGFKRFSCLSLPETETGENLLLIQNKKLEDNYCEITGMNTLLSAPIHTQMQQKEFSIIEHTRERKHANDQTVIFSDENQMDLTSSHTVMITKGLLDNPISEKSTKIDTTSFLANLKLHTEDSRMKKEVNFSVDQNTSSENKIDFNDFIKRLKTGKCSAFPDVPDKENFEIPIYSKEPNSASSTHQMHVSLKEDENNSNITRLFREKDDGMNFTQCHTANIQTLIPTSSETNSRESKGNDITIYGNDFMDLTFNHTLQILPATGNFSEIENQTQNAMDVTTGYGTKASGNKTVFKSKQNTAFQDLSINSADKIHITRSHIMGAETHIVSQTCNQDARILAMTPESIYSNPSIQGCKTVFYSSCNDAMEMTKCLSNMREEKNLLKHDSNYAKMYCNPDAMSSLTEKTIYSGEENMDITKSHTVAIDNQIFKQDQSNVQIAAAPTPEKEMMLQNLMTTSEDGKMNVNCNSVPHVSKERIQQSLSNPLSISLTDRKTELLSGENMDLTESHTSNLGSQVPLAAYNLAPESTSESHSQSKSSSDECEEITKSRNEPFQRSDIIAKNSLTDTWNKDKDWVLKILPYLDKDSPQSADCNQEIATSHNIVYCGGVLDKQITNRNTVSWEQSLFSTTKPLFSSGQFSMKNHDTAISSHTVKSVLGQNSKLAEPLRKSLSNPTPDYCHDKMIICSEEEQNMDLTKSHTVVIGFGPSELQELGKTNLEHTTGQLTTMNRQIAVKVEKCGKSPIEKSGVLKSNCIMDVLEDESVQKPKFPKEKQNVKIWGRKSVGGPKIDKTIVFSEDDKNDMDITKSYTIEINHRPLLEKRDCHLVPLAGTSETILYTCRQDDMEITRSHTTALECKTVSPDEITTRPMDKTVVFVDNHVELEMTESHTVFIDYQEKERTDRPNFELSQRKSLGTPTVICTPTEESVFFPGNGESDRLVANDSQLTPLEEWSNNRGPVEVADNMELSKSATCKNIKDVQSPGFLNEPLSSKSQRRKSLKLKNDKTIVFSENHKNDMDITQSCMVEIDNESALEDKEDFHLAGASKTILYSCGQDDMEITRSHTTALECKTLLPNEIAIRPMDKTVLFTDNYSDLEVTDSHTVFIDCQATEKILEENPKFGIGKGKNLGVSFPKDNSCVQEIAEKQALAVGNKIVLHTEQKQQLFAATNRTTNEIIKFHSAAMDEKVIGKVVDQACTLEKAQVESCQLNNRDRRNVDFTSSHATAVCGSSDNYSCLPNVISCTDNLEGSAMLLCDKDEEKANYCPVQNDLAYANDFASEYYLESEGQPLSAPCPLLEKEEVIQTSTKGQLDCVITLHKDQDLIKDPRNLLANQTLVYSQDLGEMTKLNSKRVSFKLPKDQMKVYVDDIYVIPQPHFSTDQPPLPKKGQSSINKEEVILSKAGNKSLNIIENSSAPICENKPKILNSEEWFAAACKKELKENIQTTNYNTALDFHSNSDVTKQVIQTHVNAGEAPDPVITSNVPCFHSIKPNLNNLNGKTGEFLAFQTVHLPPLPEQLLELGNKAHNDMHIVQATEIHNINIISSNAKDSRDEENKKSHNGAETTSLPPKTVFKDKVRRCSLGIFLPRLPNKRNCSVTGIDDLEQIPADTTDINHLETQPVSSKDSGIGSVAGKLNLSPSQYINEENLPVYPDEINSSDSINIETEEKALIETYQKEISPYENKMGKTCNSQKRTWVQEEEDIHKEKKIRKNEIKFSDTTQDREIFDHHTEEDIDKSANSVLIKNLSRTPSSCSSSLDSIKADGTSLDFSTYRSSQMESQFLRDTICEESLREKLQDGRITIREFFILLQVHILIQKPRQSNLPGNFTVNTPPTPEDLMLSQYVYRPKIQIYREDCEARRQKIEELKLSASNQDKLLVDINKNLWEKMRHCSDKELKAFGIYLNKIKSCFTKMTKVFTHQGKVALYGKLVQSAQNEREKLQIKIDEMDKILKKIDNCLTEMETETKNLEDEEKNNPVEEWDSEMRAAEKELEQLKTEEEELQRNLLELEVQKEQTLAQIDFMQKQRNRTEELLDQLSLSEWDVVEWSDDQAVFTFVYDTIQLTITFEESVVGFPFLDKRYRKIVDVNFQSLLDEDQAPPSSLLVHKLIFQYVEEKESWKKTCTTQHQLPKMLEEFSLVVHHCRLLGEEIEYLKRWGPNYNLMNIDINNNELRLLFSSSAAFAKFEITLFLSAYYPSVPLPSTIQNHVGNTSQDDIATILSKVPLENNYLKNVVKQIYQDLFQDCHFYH
UniProt Q9H410, residues 68-356: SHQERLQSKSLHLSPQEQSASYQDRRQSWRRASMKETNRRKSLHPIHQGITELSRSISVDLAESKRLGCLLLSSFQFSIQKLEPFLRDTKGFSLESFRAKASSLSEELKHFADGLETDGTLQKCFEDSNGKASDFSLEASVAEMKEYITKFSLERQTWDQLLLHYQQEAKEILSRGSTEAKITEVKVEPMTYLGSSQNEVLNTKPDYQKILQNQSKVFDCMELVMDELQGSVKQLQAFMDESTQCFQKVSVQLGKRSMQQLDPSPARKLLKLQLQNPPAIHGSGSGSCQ
UniProt O14777: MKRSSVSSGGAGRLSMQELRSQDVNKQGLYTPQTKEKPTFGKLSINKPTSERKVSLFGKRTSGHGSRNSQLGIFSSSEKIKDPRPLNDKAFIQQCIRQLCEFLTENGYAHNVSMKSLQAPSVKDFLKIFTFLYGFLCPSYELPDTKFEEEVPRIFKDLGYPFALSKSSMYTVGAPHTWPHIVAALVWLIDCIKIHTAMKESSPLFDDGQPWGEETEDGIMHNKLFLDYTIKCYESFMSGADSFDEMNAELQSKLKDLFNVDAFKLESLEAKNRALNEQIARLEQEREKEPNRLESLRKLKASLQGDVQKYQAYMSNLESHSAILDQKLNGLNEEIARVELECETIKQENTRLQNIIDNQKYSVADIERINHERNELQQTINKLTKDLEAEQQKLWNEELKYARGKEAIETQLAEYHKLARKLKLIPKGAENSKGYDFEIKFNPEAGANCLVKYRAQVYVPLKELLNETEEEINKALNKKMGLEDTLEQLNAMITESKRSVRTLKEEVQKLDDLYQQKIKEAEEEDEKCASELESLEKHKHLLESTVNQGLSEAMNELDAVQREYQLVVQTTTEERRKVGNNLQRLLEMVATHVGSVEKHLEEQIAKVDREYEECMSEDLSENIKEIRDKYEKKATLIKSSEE
UniProt Q96IY1, residues 1-206: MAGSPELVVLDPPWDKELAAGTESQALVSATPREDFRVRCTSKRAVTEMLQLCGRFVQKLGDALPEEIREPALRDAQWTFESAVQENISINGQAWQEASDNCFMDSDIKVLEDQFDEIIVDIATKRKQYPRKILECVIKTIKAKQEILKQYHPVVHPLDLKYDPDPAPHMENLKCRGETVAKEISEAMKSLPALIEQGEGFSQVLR

Results are given in words; binding and its absence hold for the method and conditions named. For part of these data: Binding seen in cells or lysates may run through a third protein. Some binding calls cover weakened binding; strength is not graded here.

Assay [1] addresses GFP-MIS12^WT (human) (UniProt Q9H081). Description: co-IP; GFP-Trap from lysates of mitotic (shake-off) Flp-In T-REx HeLa cells expressing GFP-MIS12 constructs; 75 mM HEPES pH 7.5, 150 mM KCl, 0.075% NP-40; 3 hr at 4°C; western blot. On the technique in general: Immunoblotting shows a protein as a band on a membrane.
The target in assay [2] is GFP-MIS12C^MIS12-YFF (human) (UniProt Q9H081). The description is as above.
In assay [3] the target is T1, PMF1 (subunit of MIS12C^Nano) (human) (UniProt Q6P1K2).
T1 sequence: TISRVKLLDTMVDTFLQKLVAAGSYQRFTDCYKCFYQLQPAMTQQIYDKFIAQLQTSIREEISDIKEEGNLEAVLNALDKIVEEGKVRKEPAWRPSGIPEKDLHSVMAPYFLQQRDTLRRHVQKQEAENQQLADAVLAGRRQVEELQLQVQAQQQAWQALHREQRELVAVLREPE
Description: crystal structure; MIS12C^Nano:CENP-C^1-71 complex, in situ proteolysis with α-chymotrypsin 1:1000 (w/w), sitting drops at 4°C, PEG6K pH 6-8; 3.5 Å; MIS12C subunits co-expressed and purified as a complex; both purified.

The target in assay [4] is MIS12 (subunit of MIS12C^Nano) (human) (UniProt Q9H081). Described as above.

Consider “KNL1 (endogenous) (from UniProt Q8NG31 1-2342)”, for which the binding result in assay [1] and in assay [2] was “binds” throughout. With “MIS12 (subunit of MIS12C^Nano) (from UniProt Q9H081 1-205) (domain or fragment)”, in assay [3], the binding entry is “binds”. Consider “DSN1 (subunit of MIS12C^Nano) (from UniProt Q9H410 68-356) (domain or fragment)”, for which the binding result in assay [3] and in assay [4] was “binds” throughout.

In the case of “NDC80 (endogenous) (from UniProt O14777 1-642)”, the binding entry in assay [1] and in assay [2] was “binds” throughout. For the substance “NSL1 (subunit of MIS12C^Nano) (from UniProt Q96IY1 1-206) (domain or fragment)”, the binding result in assay [3] and in assay [4] was “binds” each time.
